Reference: patent US20130065260A1, “Compositions, Methods and Uses for Simultaneous Assay of Thrombin and Plasmin Generation” (The Regents of the University of Colorado, a body corporate, priority 2009, published 2013)
Some entries share one result that the patent states for a list of compounds.

Key:
plasmin = assay: Simultaneous thrombin and plasmin generation (STP) assay, plasmin generation; format: biochemical, human; conditions: heparin added to standard normal pooled plasma; data not shown
thrombin = assay: Simultaneous thrombin and plasmin generation (STP) assay, thrombin generation; format: biochemical, human; conditions: heparin added to standard normal pooled plasma; data not shown
Procedure: Reactant solution is prepared as described previously for the CloFAL assay developed in our laboratory. Briefly, lipidated recombinant human tissue factor (TF) (American Diagnostica Inc, Stamford, Conn.), non-lipidated recombinant human TF (American Diagnostica Inc), and recombinant two-chain tissue plasminogen activator (tPA) (American Diagnostica Inc) are added to a stock solution of Tris-buffered saline (TBS; 66 mM Tris, 130 mM NaCl, pH=7.0) containing 34 mM CaCl2, to a concentration of 10 pM of TF (made from 8.7 pM non-lipidated TF and 1.3 pM lipidated TF) and 900 ng/mL of tPA. […]
For each patient sample to be analyzed, 90 μL of reactant solution was added simultaneously to each well in a flat-bottom, black, 96 well Costar assay plate (Fisher Scientific, Santa Clara, Calif.) using a multi-tip automated pipette. […] The plate was then placed into the fluorescent spectrophotometer (Multi-Mode Microplate Reader Synergy 2, Bio-Tek Instruments, Winooski, Vt.) where it was pre-warmed at 37 ° C. for three minutes. […] The plate was then drawn back into the fluorescent spectrophotometer where the sample is initially mixed for five seconds followed by fluorescent intensity measurements taken from each well every 45 seconds for four hours at a fluorescent emission of […] (as determined by the chosen fluorescent substrates). […]

Substance | heparin concentration to which plasmin generation by STP was sensitive (plasmin) [U/mL] | heparin concentration to which thrombin generation by STP was sensitive (thrombin) [U/mL]
dalteparin | ≥ 0.05 | ≥ 0.05
porcine unfractionated heparin sodium | ≥ 0.05 | ≥ 0.05
